{"source": "PubChem BioAssay AID504808 (Drosophila RNAi Screening Center, 2011)", "purpose": "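Genes whose loss lifts activity of an E2F-responsive reporter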 (primary screen)", "cell system": "Drosophila S2 cells", "reagent": "long dsRNA against Drosophila genes", "measurement": "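Dual luciferase plate measurements; E2F-specific signal taken as firefly over Renilla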", "direction": "E2F firefly: higher = more E2F reporter activity; Renilla normaliser: higher = more normaliser reporter signal", "active means": "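Called active if the normalised E2F reporter went up by over 50%; the cutoff is arbitrary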", "note": "The deposit covers about 21,000 reagents; shown is a random part of those with a known target gene and a result. In the full data, 18 (0.084%) got an active call. 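Raw counts without plate normalisation, one of two replicates; the ratio scores behind the calls were not deposited.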 A number with no mark means an inactive call. A plus sign joins genes that one reagent is predicted to hit. Not given: the amount of reagent, the time to read-out."}
{"Target gene": "al", "dsRNA": "DRSC00799", "E2F firefly, rep 1": 1.65e5, "Renilla normaliser, rep 1": 5381}
{"Target gene": "tilB", "dsRNA": "DRSC20634", "E2F firefly, rep 1": 1.47e5, "Renilla normaliser, rep 1": 7218}
{"Target gene": "Ror", "dsRNA": "DRSC03414", "E2F firefly, rep 1": 1.49e5, "Renilla normaliser, rep 1": 4564}
{"Target gene": "Fam92", "dsRNA": "DRSC02952", "E2F firefly, rep 1": 78448, "Renilla normaliser, rep 1": 3602}
{"Target gene": "CG13876", "dsRNA": "DRSC08346", "E2F firefly, rep 1": 94283, "Renilla normaliser, rep 1": 4519}
{"Target gene": "CG13048", "dsRNA": "DRSC09929", "E2F firefly, rep 1": 1.71e5, "Renilla normaliser, rep 1": 7770}
{"Target gene": "Cisd2", "dsRNA": "DRSC14904", "E2F firefly, rep 1": 1.27e5, "Renilla normaliser, rep 1": 5761}
{"Target gene": "CCHa1", "dsRNA": "DRSC14821", "E2F firefly, rep 1": 1.09e5, "Renilla normaliser, rep 1": 10112}
{"Target gene": "CG11986", "dsRNA": "DRSC14461", "E2F firefly, rep 1": 59473, "Renilla normaliser, rep 1": 3370}
{"Target gene": "Caf1-55", "dsRNA": "DRSC16596", "E2F firefly, rep 1": 54178, "Renilla normaliser, rep 1": 5404}
{"Target gene": "CG14312", "dsRNA": "DRSC14791", "E2F firefly, rep 1": 1.37e5, "Renilla normaliser, rep 1": 6833}
{"Target gene": "cry", "dsRNA": "DRSC16928", "E2F firefly, rep 1": 1.47e5, "Renilla normaliser, rep 1": 7983}
{"Target gene": "BORCS7 + CG13430", "dsRNA": "DRSC06392", "E2F firefly, rep 1": 84580, "Renilla normaliser, rep 1": 3719}
{"Target gene": "BORCS7 + CG13430", "dsRNA": "DRSC06707", "E2F firefly, rep 1": 88929, "Renilla normaliser, rep 1": 3608}
{"Target gene": "PGAP2", "dsRNA": "DRSC00632", "E2F firefly, rep 1": 80489, "Renilla normaliser, rep 1": 3541}
{"Target gene": "CG33922", "dsRNA": "DRSC00050", "E2F firefly, rep 1": 1.43e5, "Renilla normaliser, rep 1": 5557}
{"Target gene": "rgr", "dsRNA": "DRSC06487", "E2F firefly, rep 1": 3508, "Renilla normaliser, rep 1": 252}
{"Target gene": "rgr", "dsRNA": "DRSC07229", "E2F firefly, rep 1": 3648, "Renilla normaliser, rep 1": 288}
{"Target gene": "CG14490", "dsRNA": "DRSC06461", "E2F firefly, rep 1": 1.50e5, "Renilla normaliser, rep 1": 4473}

Records listed so far whose gene name begins with R or r:
{"Target gene": "Ror", "dsRNA": "DRSC03414", "E2F firefly, rep 1": 1.49e5, "Renilla normaliser, rep 1": 4564}
{"Target gene": "rgr", "dsRNA": "DRSC06487", "E2F firefly, rep 1": 3508, "Renilla normaliser, rep 1": 252}
{"Target gene": "rgr", "dsRNA": "DRSC07229", "E2F firefly, rep 1": 3648, "Renilla normaliser, rep 1": 288}
